# Patent US20110243845A1
# Sequences of proteins named here, by UniProt entry; tags and fusion partners are left off.
# UniProt P30874: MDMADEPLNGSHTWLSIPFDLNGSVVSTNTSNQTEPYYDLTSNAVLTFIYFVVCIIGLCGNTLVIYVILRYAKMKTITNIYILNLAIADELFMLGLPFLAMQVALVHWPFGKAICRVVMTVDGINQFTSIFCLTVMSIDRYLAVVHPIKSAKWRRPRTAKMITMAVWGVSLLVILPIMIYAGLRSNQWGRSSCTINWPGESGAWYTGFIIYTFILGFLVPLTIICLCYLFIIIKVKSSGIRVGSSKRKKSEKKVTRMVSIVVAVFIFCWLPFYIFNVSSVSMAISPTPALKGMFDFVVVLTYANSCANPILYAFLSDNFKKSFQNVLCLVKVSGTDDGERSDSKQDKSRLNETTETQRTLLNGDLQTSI
# Results are given in words; binding and its absence hold for the method and conditions named. Some entries that bind do so weakly or less than the wild type.
# What was measured:
# [1] = target: hsst2 (human) (UniProt P30874); assay: binding potencies at somatostatin receptors hsst1-5; method not described
# [2] = target: hsst2 (human) (UniProt P30874); assay: binding potencies at somatostatin receptors; method not described
Binder,binding [1],binding [2]
"PFWKTF (head-to-tail cyclic hexapeptide; residue 3 is (2R,3S)-β-methyl-Trp) [c[Pro-Phe-(2R,3S)-β-MeTrp-Lys-Thr-Phe]]",binds,binds
"PFWKTF (head-to-tail cyclic hexapeptide; residue 3 is (2R,3R)-β-methyl-Trp) [c[Pro-Phe-(2R,3R)-β-MeTrp-Lys-Thr-Phe]]",binds,
